Results from the supplement of paper PMC11732987, “Enantioselective OTUD7B fragment discovery through chemoproteomics screening and high-throughput optimisation” (Communications Chemistry, 2025).
The other results are listed elsewhere or left out. The data scatter; read single values as rough.

Protein sequences, listed by entry. Tags and fused reporters are not part of them. Lines headed by an entry give the natural chain unless they say otherwise; changes in a name come on top.
UniProt Q13686: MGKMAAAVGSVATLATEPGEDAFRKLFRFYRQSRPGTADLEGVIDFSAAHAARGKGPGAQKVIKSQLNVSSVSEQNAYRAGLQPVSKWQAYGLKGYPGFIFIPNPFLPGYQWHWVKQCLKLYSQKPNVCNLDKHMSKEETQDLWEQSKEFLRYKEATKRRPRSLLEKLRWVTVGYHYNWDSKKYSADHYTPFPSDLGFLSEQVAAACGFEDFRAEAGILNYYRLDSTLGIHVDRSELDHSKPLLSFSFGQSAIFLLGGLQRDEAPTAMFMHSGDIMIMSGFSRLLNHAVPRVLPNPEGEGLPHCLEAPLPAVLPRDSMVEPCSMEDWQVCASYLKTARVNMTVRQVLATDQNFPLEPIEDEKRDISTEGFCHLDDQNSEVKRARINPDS
UniProt P49419: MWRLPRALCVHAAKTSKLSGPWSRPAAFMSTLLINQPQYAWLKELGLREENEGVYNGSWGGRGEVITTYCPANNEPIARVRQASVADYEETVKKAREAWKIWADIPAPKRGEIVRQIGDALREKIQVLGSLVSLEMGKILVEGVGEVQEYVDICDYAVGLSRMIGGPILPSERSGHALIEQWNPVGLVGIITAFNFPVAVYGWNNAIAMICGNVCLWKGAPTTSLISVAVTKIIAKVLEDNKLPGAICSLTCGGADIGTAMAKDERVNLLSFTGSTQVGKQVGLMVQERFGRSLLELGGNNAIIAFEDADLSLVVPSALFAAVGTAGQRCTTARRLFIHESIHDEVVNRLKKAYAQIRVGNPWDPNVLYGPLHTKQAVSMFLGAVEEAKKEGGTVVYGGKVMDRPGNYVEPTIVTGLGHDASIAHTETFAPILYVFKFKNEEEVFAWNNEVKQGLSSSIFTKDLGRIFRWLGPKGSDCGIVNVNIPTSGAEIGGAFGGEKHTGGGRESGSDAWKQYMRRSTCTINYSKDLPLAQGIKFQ
UniProt Q12802: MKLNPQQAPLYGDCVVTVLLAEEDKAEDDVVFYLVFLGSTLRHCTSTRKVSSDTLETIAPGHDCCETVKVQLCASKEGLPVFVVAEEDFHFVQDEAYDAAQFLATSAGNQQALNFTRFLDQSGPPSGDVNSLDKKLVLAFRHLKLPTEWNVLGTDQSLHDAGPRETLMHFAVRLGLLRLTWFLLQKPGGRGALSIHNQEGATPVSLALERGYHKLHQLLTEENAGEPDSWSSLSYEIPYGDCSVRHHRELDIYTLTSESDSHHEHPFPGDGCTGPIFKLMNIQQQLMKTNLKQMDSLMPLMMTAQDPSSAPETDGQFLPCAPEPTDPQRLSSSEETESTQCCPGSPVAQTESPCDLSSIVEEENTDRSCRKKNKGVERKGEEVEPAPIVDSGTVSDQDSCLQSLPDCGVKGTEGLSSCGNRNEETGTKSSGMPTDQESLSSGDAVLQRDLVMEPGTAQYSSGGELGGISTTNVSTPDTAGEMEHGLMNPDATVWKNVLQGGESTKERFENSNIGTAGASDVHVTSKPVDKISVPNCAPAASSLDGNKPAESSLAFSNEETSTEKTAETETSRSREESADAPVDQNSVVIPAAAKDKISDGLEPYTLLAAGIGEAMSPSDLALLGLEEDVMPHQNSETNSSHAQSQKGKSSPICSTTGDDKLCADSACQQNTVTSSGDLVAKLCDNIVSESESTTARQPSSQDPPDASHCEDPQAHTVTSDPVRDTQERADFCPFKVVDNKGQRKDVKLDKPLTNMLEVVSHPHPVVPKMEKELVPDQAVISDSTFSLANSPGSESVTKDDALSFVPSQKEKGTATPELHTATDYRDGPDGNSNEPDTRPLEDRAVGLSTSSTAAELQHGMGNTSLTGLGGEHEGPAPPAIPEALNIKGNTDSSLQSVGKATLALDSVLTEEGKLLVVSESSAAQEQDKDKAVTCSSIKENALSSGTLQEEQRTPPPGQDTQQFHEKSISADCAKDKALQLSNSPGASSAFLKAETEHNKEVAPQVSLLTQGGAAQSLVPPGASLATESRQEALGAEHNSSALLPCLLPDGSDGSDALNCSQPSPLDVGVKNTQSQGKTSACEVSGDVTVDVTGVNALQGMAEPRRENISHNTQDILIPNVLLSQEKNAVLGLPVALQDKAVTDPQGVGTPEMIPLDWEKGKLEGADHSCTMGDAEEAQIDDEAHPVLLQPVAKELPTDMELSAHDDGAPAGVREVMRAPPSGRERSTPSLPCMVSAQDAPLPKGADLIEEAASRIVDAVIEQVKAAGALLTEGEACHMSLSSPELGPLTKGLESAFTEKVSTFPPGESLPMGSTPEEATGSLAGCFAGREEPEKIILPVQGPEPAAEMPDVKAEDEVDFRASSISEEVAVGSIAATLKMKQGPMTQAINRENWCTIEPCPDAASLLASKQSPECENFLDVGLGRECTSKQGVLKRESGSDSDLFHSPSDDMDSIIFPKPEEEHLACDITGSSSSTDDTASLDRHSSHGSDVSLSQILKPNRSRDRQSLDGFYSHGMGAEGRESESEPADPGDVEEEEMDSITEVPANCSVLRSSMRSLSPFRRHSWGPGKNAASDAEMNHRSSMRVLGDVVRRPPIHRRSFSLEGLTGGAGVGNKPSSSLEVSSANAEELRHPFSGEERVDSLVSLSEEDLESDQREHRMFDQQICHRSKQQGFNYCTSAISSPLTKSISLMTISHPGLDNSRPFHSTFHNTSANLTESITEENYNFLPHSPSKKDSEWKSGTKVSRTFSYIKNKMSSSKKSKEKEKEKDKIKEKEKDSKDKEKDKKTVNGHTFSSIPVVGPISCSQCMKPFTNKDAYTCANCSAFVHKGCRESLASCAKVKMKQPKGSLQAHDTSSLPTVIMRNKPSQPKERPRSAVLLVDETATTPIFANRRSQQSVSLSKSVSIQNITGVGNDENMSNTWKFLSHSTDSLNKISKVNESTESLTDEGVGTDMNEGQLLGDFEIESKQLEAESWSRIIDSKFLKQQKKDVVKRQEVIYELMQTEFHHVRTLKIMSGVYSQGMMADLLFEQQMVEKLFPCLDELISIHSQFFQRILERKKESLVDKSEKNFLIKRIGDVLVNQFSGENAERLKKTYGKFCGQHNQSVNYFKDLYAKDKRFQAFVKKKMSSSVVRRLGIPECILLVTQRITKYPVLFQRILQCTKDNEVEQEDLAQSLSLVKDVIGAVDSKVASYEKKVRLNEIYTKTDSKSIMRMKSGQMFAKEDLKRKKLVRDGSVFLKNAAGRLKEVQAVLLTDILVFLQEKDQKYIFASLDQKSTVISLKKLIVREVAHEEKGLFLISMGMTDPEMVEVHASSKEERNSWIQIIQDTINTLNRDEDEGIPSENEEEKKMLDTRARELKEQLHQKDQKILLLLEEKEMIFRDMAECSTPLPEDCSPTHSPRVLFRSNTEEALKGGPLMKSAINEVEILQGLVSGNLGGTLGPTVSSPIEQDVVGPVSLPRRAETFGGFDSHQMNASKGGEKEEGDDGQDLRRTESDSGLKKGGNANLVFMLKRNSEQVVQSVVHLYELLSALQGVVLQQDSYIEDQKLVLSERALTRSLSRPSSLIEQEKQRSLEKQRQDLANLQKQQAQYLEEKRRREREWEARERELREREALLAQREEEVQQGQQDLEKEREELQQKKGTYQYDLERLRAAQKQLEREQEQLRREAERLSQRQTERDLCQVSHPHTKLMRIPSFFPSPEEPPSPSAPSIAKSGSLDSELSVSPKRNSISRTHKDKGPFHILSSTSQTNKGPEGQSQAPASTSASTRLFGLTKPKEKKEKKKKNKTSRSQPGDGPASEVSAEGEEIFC
UniProt Q4VCS5: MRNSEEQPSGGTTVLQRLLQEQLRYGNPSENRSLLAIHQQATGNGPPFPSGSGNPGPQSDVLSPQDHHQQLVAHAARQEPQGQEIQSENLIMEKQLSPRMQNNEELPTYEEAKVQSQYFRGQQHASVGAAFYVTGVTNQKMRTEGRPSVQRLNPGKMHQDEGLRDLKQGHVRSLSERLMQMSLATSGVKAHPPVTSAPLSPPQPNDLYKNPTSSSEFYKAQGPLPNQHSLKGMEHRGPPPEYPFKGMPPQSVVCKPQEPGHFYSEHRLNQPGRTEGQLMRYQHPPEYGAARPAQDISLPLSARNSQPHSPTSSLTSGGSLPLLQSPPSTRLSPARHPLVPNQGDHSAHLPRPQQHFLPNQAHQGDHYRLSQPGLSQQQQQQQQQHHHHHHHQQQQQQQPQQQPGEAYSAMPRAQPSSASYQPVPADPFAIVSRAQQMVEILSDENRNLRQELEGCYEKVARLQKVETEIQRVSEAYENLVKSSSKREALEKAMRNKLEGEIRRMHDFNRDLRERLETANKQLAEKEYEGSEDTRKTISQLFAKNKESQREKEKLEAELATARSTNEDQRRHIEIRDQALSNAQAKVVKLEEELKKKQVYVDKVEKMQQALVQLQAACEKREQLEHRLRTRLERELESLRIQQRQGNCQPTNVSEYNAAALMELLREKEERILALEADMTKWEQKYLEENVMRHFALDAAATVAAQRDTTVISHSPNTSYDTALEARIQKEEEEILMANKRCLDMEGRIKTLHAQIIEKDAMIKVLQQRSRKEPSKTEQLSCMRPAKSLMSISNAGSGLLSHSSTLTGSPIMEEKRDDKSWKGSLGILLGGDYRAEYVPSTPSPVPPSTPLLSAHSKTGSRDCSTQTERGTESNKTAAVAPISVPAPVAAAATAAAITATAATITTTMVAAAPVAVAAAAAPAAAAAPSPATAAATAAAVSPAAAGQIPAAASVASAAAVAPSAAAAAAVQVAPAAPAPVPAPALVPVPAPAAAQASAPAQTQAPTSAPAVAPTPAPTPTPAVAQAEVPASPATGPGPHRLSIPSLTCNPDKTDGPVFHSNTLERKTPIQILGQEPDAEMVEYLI
UniProt P14621: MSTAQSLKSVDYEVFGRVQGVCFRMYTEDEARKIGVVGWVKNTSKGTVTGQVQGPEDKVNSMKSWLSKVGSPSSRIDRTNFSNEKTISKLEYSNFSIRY
UniProt Q02040: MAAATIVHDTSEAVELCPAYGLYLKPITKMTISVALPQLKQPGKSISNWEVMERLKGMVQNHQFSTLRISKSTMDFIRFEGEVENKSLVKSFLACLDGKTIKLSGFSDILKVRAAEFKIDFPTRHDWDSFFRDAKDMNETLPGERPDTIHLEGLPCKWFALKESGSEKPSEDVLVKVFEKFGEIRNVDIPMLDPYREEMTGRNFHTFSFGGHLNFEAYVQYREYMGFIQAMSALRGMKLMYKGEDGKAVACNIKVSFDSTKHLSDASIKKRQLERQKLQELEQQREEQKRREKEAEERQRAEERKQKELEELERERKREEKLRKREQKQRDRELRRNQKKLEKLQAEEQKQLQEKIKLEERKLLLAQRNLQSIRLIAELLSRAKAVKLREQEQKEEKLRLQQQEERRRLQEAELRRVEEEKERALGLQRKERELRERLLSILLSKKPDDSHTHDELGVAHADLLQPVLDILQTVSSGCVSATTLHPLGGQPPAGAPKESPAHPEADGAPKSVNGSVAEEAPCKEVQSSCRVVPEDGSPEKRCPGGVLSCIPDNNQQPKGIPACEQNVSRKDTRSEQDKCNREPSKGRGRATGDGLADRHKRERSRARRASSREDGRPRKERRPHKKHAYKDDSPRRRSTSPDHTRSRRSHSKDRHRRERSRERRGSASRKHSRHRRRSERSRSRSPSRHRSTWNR
UniProt Q92667: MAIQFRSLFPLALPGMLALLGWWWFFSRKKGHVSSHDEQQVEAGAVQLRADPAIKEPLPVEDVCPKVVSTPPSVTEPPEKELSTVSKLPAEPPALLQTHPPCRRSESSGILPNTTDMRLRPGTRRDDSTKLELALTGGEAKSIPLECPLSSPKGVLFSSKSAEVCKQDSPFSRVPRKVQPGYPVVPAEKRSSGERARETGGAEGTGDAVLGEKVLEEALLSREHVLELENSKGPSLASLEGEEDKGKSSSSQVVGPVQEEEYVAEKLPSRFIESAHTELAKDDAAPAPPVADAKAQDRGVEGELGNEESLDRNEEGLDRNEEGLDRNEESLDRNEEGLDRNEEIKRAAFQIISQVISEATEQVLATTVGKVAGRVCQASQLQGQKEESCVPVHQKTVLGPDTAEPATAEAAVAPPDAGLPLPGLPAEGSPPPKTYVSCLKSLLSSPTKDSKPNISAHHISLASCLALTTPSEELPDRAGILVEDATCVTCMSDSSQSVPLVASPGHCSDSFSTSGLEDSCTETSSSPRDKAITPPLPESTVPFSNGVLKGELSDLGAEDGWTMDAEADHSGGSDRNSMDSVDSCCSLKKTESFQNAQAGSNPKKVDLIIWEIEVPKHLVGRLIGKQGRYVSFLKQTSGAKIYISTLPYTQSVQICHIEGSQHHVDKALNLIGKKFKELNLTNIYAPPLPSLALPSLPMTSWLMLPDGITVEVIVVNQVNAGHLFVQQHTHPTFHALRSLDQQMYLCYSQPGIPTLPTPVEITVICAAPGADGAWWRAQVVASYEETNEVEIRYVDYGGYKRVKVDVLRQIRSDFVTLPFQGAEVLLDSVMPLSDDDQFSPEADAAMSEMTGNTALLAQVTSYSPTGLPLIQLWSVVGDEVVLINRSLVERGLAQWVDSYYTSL

Each target was assayed with ClCC(=O)N[C@H]1CCCc2ccccc12 (assay: log2 mean competition ratio of IA-DTB cysteine labelling (DMSO/compound) (log2 ratio); higher = stronger cysteine engagement by compound). Conditions: 50 µM; treatment time: 4 h; cell line lysate: HEK293T.
Procedure: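 IA-DTB competitive cysteine chemoproteomics in HEK293T RIPA lysate. Lysates were treated with compound 29 or 30 at 50 or 200 µM for 4 h, then IA-DTB (500 µM, 1 h), trypsin-digested, NeutrAvidin-enriched and analysed by diaPASEF. Competition ratio = intensity DMSO / intensity compound (n=4 treated, n=64 DMSO); binding: mean log2 CR ≥ 1 and p ≤ 0.05 plus QC filters. Target is the cysteine site.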

Target	log2 mean competition ratio
ANAPC1 C437 (UniProt Q9H1A4)	-0.174
AKAP8 C351 (UniProt O43823)	-0.517
ACSS2 C75 (UniProt Q9NR19)	-0.561
ALKBH1 C371 (UniProt Q13686)	-0.42
ANAPC5 C203 (UniProt Q9UJX4)	0.0534
AGK C334 (UniProt Q53H12)	-0.39
ALDH7A1 C522 (UniProt P49419)	0.256
AKAP13 C972 (UniProt Q12802)	0.23
ADGRE5 C802	0.313
ACTR3 C235 (UniProt P61158)	-0.193
AHNAK C2806 (UniProt Q09666)	-0.182
AMOT C617 (UniProt Q4VCS5)	0.43
AFF1 C892 (UniProt P51825)	-0.423
ACYP2 C22 (UniProt P14621)	0.2
AKAP17A C522 (UniProt Q02040)	-0.192
AMOT C781 (UniProt Q4VCS5)	-0.0723
AFDN C841	0.0526
AKAP1 C147 (UniProt Q92667)	-0.256
ACLY C1040 (UniProt P53396)	0.133
ADAM15 C733 (UniProt Q13444)	0.0854

Same assay, conditions: 200 µM; treatment time: 4 h; cell line lysate: HEK293T

Target	log2 mean competition ratio
ANAPC1 C437 (UniProt Q9H1A4)	-0.345
AKAP8 C351 (UniProt O43823)	0.129
ACSS2 C75 (UniProt Q9NR19)	-0.228
ALKBH1 C371 (UniProt Q13686)	-0.115
ANAPC5 C203 (UniProt Q9UJX4)	-0.148
AGK C334 (UniProt Q53H12)	0.202
ALDH7A1 C522 (UniProt P49419)	0.0465
AKAP13 C972 (UniProt Q12802)	0.194
ADGRE5 C802	0.16
ACTR3 C235 (UniProt P61158)	0.0382
AHNAK C2806 (UniProt Q09666)	-0.0487
AMOT C617 (UniProt Q4VCS5)	0.0189
AFF1 C892 (UniProt P51825)	0.057
ACYP2 C22 (UniProt P14621)	0.0634
AKAP17A C522 (UniProt Q02040)	0.288
AMOT C781 (UniProt Q4VCS5)	-0.0654
AFDN C841	0.0589
AKAP1 C147 (UniProt Q92667)	0.151
ACLY C1040 (UniProt P53396)	0.078
ADAM15 C733 (UniProt Q13444)	0.149
